According to PubChem BioAssay AID1508600 (Functional Genomics Laboratory (NCATS/FGL), 2020):
Hit rate of the full screen: of about 53,000 sequences, about 3,700 (7%) were called active.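 The calls were made as follows: active = gene knockdowns whose robust z-score for IL-1 alpha signal is at least 2 or at most -2, so actives lie on both sides; inactive = the rest.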 The list shows a part of the results.

assay: Components of the Cytosolic LPS Sensing Pathway: Gene Identification via Genome-wide siRNA Screen; conditions: RAW264.7 macrophages, IL-1a HTRF, actives lie on both sides, screened at 100 nM (by protocol), cells primed 5 h with Pam3CSK4 first;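 also: robust z of the log signal after scaling to non-targeting control siRNA wells of the plate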
Procedure, shortened: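 Supernatant IL-1a by HTRF from RAW264.7 cells primed with Pam3CSK4 (5 hours) and transfected with LipidA (24 hour) after 48h siRNA knockdown at 100 nM; cell viability checked with CellTiter-Glo.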

Sequence | z-score
GGCAGUCGAUUUAUAACUCTT against Clic5 | inactive: 0.74
GCUGAUGAAGGUGAUACGUTT against Pnma2 | inactive: -0.7
GCUUAUCUAUUGAGAGAGATT against Hs3st3b1 | inactive: -0.597
CCUAAAGUCCUUAGUCACATT against Zfp397 | inactive: -0.305
GGCCUUGGCAUCUAUUUAUTT against Tcf12 | inactive: 1.22
GCUAAGGUCUGUUAAACGCTT against Hyal3 | inactive: 0.695
GGCUCUGGAAAAGAACAACTT against Sds | inactive: 1.52
GGAAGAUUAUCUCUUUUGATT against Olfr1214 | inactive: 0.929
GGAAGACAUGAAAUUGUUCTT against Psma3 | active: -2.69
GGAGAAUGGCAUUUUUGAGTT against Pkp3 | inactive: -1.6
GGAAAAAGAGGCCAAAAAGTT against Arid4a | inactive: -0.221
GGAAGGCAACUCUUAGAAUTT against Olfr491 | inactive: -0.135
CCAGGAUUACAUCCGGACATT against Srbd1 | inactive: -0.379
GGAUACACACAGAGAAUAUTT against Arhgef10l | inactive: 0.161
GGAAGUUUUCAGGCAAUUUTT against Dock9 | inactive: -0.555
CCGAUUUUGUGGCCUCAUGTT against Emg1 | inactive: -0.578
GGAGAAGCCCUGAAUGAAGTT against Pik3c2g | inactive: -0.902
GGAUGAUCCACCGUCAAAATT against Il9 | inactive: 0.5
GGACACCACCGACUUUUUUTT against Nr2c2ap | inactive: -0.786
GGGUCAGAUGGUACCAAGATT against Adamts18 | inactive: 0.0174
GGCUCAUUUAACUCCAUGCTT against Gatad2a | inactive: -0.892
GGAAAGAAGCAACCACUUCTT against 4833439L19Rik | inactive: 0.403
GGUCAUGCGGAGCAAAGAATT against Sirt5 | inactive: -1.22
GGUAACAGUCCUGAAAUACTT against Ugt2a3 | inactive: -0.557
GGAUGAUGCCCGAAAGAACTT against Zfp536 | active: -4.55
GGCUGAAUGUGAGAAUAGCTT against Map3k14 | inactive: -0.382
GGCAUUGAUAAAGAUGGCATT against Grip1 | inactive: -1.04
GCUGGAAGAUAGUGCUUUUTT against Itpr1 | active: 5.23
GGACUGACAGAGUCACUUGTT against Olfr733 | inactive: -1.48

A second format for part of the listing above.
Sequence,z-score
CCUAAAGUCCUUAGUCACATT against Zfp397,inactive: -0.305
GGAAGACAUGAAAUUGUUCTT against Psma3,active: -2.69
